The target in this test is p53 (mouse (endogenous in C3H/10T1/2)) (UniProt P02340). The experiment in a line: co-IP; 1x10^7 cells lysed in IP lysis buffer; p53-specific antibody overnight at 4 C; Protein A/G magnetic beads; HMGA1 detected by blot; triplicate experiments.

Results are given in words; binding and its absence hold for the method and conditions named. In cells and extracts the contact can be indirect. Some binding calls cover weakened binding; strength is not graded here.

B1: High mobility group A1 (HMGA1) (protein, UniProt P17095 1-107)
chain: MSESGSKSSQPLASKQEKDGTEKRGRGRPRKQPPVSPGTALVGSQKEPSEVPTPKRPRGRPKGSKNKGAAKTRKVTTAPGRKPRGRPKKLEKEEEEGISQESSEEEQ
As to B1, the binding entry is given as “binds”.

Values taken from PMC12681744.
